From PubChem BioAssay AID1671190 (National Center for Advancing Translational Sciences (NCATS), 2021)
Among all 580,000 compounds or so, about 6,100 (1.1%) were called active. Inconclusive results, whose numbers are uncertain, are shown with a selection of clear calls. Calls come from the whole dose curve; as a rule, active = well fitted inhibition curve with a large enough effect; inconclusive = small, poorly fitted or top-dose-only effect, or another doubt; inactive = no such curve, though single readings can be large or run the other way. Potencies of inconclusive entries are doubtful fits and often do not repeat.

Amino acid sequences for entries named in this document (tags omitted). A change or cut given only in a name is not applied to a line headed by its entry.
UniProt P18054: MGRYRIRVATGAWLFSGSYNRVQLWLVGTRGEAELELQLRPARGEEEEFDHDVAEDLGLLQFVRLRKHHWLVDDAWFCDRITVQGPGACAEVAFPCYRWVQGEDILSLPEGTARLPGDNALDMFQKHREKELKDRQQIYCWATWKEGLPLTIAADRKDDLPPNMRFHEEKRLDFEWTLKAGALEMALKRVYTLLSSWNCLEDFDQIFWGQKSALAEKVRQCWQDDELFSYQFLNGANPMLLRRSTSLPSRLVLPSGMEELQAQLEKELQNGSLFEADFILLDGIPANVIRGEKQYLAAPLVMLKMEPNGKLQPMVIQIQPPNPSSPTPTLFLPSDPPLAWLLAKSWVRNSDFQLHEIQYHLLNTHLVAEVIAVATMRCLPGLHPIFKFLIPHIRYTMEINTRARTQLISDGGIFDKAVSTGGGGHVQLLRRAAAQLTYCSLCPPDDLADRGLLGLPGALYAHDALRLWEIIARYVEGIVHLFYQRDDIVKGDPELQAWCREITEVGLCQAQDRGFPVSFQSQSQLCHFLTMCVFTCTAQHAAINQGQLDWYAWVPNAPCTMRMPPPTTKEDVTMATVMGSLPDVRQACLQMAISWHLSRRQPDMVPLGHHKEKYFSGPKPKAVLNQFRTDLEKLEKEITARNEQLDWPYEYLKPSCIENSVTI

target: Polyunsaturated fatty acid lipoxygenase ALOX12 (Homo sapiens) (UniProt P18054); assay: Primary qHTS assay for inhibitors of human arachidonate 12S-lipoxygenase (ALOX12): Round 2; conditions: purified 12hLO, xylenol orange hydroperoxide absorbance; activity change, negative = inhibition: at 108 µM (top of the series) unless noted
How it was run: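 Purified human 12hLO at 150 nM in 25 mM Hepes, 0.01% Triton X-100, pH 7.0, preincubated 15 min at room temperature with compound. Reaction started with 40 uM arachidonic acid, 30 min at room temperature. Hydroperoxide measured by Fe-xylenol orange, 573/405 nm absorbance ratio.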
% is set by controls: 0 for no effect and ±100 for the full control effect; potency is the fitted concentration of half-maximal effect.

Compound | Potency | activity change, negative = inhibition
Cc1cc(=O)n(CC(=O)NCCc2ccc(Cl)cc2)c(N2CCc3ccccc3C2)n1 | inconclusive: 44.7 µM [inhibitor, partial curve, poor fit] | 
O=c1[nH]c(/C=C\c2cccnc2)c([N+](=O)[O-])c(=O)[nH]1 | inconclusive: 11.2 µM [inhibitor, full curve, poor fit] | 
COc1cc(NC(=O)CSc2nc(-c3ccco3)cc(C(F)(F)F)n2)cc(OC)c1OC | inconclusive: 141 µM [inhibitor, single point] | 
NC(=O)c1ncn([C@@H]2O[C@H](CO)[C@@H](O)[C@@H]2O)c1O | inconclusive: 4.85 µM [inhibitor, partial curve, poor fit] | 
COc1ccc(OC)c(-n2c(-c3ccccc3)n[nH]c2=S)c1 | inconclusive: 50.1 µM [inhibitor, partial curve, poor fit] | 
COCCCNC(=O)C[C@H]1C[C@H](C(=O)N(C(C)C)C(C)C)[C@@]2(C)c3[nH]c4cc(-c5ccco5)ccc4c3CCN2C1=O | inconclusive: 112 µM [inhibitor, single point] | 
CSCc1cc(N2CCOCC2)nc(SCc2ccc(Cl)c(Cl)c2)n1 | inconclusive: 35.5 µM [inhibitor, partial curve, poor fit] | 
O=C1CN(Cc2cccc(Cl)c2)CCN1c1ccc(Cl)nn1 | inconclusive: 28.2 µM [inhibitor, full curve, poor fit] | 
Cc1sc(NC(=O)CCC(=O)O)c(C#N)c1C | inconclusive: 28.2 µM [inhibitor, partial curve, poor fit] | 
CCCCCC(=O)Nc1cccc2ccccc12 |  | inactive: -13.3%
Cc1cc(C)nc(SCC(=O)N(C)C)n1 | inconclusive: 100 µM [inhibitor, single point] | 
O=S(=O)(c1cccs1)N1CCN(c2ccnc3cc(Cl)ccc23)CC1 |  | inactive: 20.2%
C=C(C)Cn1c2ccc(NC(=S)NCc3ccccc3F)cc2c(=O)n1C | inconclusive: 56.2 µM [inhibitor, partial curve, poor fit] | 
C#CCN(C)CC/C=C1\c2ccccc2CSc2ccccc21 | inconclusive: 79.4 µM [inhibitor, partial curve, poor fit] | 
CN1CCN(c2ncc3nc(-c4cccs4)c(=O)n(Cc4cccs4)c3n2)CC1 | inconclusive: 8.91 µM [inhibitor, partial curve, poor fit] | 
COc1ccc2cc(C(=O)C3CCCN(C(=O)c4cnn(C(C)C)c4)C3)ccc2c1 (centres undefined) |  | inactive: 0%
CC(=O)NCCNC(=O)c1nnc2n1CCN(C(=O)C1CCCCC1)C2 |  | inactive: -7.25%
Clc1ccc(OCc2nnc(SCCN3CCCCC3)n2Cc2ccco2)cc1 | inconclusive: 5.62 µM [inhibitor, full curve, poor fit] | 
CN1CCCC1CNC(=O)c1cc2ccccc2s1 (centres undefined) |  | inactive: 21%
CCc1ccc2oc(C(=O)Nc3ccc(S(=O)(=O)N(CC)c4ccccc4)cc3)cc(=O)c2c1 | inconclusive: 44.7 µM [inhibitor, partial curve, poor fit] | 
O=C(Nc1cccc(S(=O)(=O)N2CCCC2)c1)c1ccccc1OC(F)F | inconclusive: 44.7 µM [inhibitor, partial curve, poor fit] | 
O=C(ONC(=O)C1C2C=CC(C2)C1C(=O)NOC(=O)c1ccccc1)c1ccccc1 (centres undefined) |  | inactive: 0.483%

Compound | Potency | activity change, negative = inhibition
Cc1cc(C)c(C)c(S(=O)(=O)Nc2ccccc2C(=O)O)c1C | inconclusive: 2.24 µM [inhibitor, full curve, poor fit] | 
Cc1ccc(Cl)c2c1NC(=O)C2(O)CC(=O)c1ccc(Br)cc1 (centres undefined) | inconclusive: 44.7 µM [inhibitor, partial curve, poor fit] | 
CCOC(=O)c1c(NC(=O)Cn2nc(C(F)(F)F)cc2C)sc(C)c1C | inconclusive: 44.7 µM [inhibitor, partial curve, poor fit] | 
COc1ccc(CCNC(=O)COC(=O)COc2c(C)cc(C)cc2C)cc1OC |  | inactive: 331%
CCN(CC)CCN1CCN(c2cncc(-c3ccc4ccccc4c3)n2)CC1 | inconclusive: 14.1 µM [inhibitor, full curve, poor fit] | 
CCCCCCCn1c(Br)nc2c1c(=O)n(C)c(=O)n2C |  | inactive: -2.19%
CCN(CC)C(=O)CSc1nn(C)c2nc3c(c(=O)n12)C(C)(CC)Cc1ccccc1-3 (centres undefined) | inconclusive: 15.8 µM [inhibitor, partial curve, poor fit] | 
COc1ccc2[nH]c(=O)c(-c3nnn(-c4ccc(F)cc4)n3)cc2c1 | active: 10 µM | 
CC(C)C[C@@H]1Cc2[nH][nH]c(=O)c2[C@H](C(C)C)O1 |  | inactive: 20.4%
CCNC(=S)Nc1ccc2cn[nH]c2c1 |  | inactive: 0.556%
N[C@@H]1CCN(O)C1=O | inconclusive: 14.1 µM [inhibitor, partial curve, poor fit] | 
CCc1nnc(NC(=O)CCc2ccc(-c3ccc(C)c(C)c3)o2)s1 | inconclusive: 12.6 µM [inhibitor, partial curve, poor fit] | 
OC(CC#CCN1CCC(c2ccccc2)C1)(c1ccccc1)c1ccccc1 (centres undefined) | inconclusive: 44.7 µM [inhibitor, partial curve, poor fit] | 
O=C(NC1CCCCC1)C1c2ccccc2OCC(=O)N1Cc1cccnc1 (centres undefined) | inconclusive: 56.2 µM [inhibitor, partial curve, poor fit] | 
CCOc1ccc(NC(=O)C2C(c3ccccc3)C2(Cl)Cl)cc1 (centres undefined) | inconclusive: 100 µM [inhibitor, single point] | 
COC(=O)c1ccc2nc(CO[C@H]3CN(Cc4ccc(S(C)(=O)=O)cc4)C[C@H]3F)[nH]c2c1 |  | inactive: 6.84%
Cc1c(NC(=S)NC(=O)COc2ccccc2)c(=O)n(-c2ccccc2)n1C |  | inactive: -13.2%
CC(C)c1nn(C)c(N(C)C)c1CNCc1ccc2c(c1)OCO2 | inconclusive: 141 µM [inhibitor, single point] | 
COc1ccc2c(c1)-c1nc(/N=C/c3cccc(OC)c3O)sc1CC2 | inconclusive: 56.2 µM [inhibitor, partial curve, poor fit] | 
CN1C(=O)/C(=C\c2cccc(OCc3ccccc3)c2)SC1=S |  | inactive: -28.7%
CC1(C)CC(N=c2cc(-c3ccccc3)oc3ccc(Cl)cc23)CC(C)(C)N1 | inconclusive: 39.8 µM [inhibitor, partial curve, poor fit] | 
C#CCOc1ccc(Cl)cc1/C=C1/C(=O)ON=C1C | inconclusive: 20 µM [inhibitor, partial curve, poor fit] | 

An excerpt of these results, with each value named:
CN1C(=O)/C(=C\c2cccc(OCc3ccccc3)c2)SC1=S
  activity change, negative = inhibition: inactive: -28.7%
CC1(C)CC(N=c2cc(-c3ccccc3)oc3ccc(Cl)cc23)CC(C)(C)N1
  Potency: inconclusive: 39.8 µM [inhibitor, partial curve, poor fit]
C#CCOc1ccc(Cl)cc1/C=C1/C(=O)ON=C1C
  Potency: inconclusive: 20 µM [inhibitor, partial curve, poor fit]

The results go on:

Compound | Potency | activity change, negative = inhibition
COc1cc(NS(=O)(=O)c2ccc(NC(=S)NC(=O)c3ccc(Br)cc3)cc2)ncn1 | inconclusive: 12.6 µM [inhibitor, full curve, poor fit] | 
CCCCn1nc(C(=O)N2CCCC(c3nc4ccccc4s3)C2)c2ccccc2c1=O (centres undefined) |  | inactive: 12.8%
COc1ccc(NS(=O)(=O)c2ccc3nc(COc4ccc(Cl)c(C)c4)[nH]c3c2)cc1 | inconclusive: 56.2 µM [inhibitor, partial curve, poor fit] | 
COc1cc2nc3n(c(=O)c2cc1OC)-c1cc2ccccc2cc1C(=O)NC3CC(C)C (centres undefined) | inconclusive: 89.1 µM [inhibitor, single point] | 
COC(=O)c1ccc2nc(-c3ccco3)c(Cc3ccsc3)n2c1 | inconclusive: 22.4 µM [inhibitor, single point] | 
COCCNc1ccnc(-c2ccccc2C)n1 | inconclusive: 39.8 µM [inhibitor, partial curve, poor fit] | 
Cc1c(Cl)cccc1-c1ccc(/C=N/n2cnnc2)o1 | inconclusive: 39.8 µM [inhibitor, partial curve, poor fit] | 
Nc1c(C(=O)Nc2ccccc2)nnn1-c1ccc2c(c1)OCCO2 |  | inactive: 8.93%
COc1cccc(Nc2nc3ccccc3nc2NS(=O)(=O)c2cccs2)c1 | inconclusive: 50.1 µM [inhibitor, full curve, poor fit] | 
CNC(=O)CN(C)c1nc(-c2ccccc2)c2ccccc2n1 |  | inactive: -6.84%
Cc1c(C(=O)N2CCC(C)CC2)oc2ccc3c(c12)C(O)CC1(CCCCC1)O3 (centres undefined) | inconclusive: 50.1 µM [inhibitor, partial curve, poor fit] | 
CC1(C)CC(=O)C2=C(C1)Nc1c(c(=O)[nH]c(=O)n1Cc1ccccc1)C2c1ccc2c(c1)OCO2 (centres undefined) | inconclusive: 126 µM [inhibitor, single point] | 
CCc1ccccc1Nc1ncnc2c1cnn2-c1ccc(C)cc1C | inconclusive: 126 µM [inhibitor, partial curve, poor fit] | 
O=C(c1csnn1)N1CCC2(CC1)CN(c1cccc(-c3ccccc3)c1)C2 |  | inactive: 2.08% [at 57.4 µM]
COc1ccc(C(=O)Nc2nnc(S(=O)(=O)N(C)c3ccc(C)cc3)s2)cc1 | inconclusive: 79.4 µM [inhibitor, partial curve, poor fit] | 
CCOc1ccc(NC(=O)C(=O)N/N=C/c2cccnc2)cc1 | inconclusive: 14.1 µM [inhibitor, partial curve, poor fit] | 
CCc1nc(N)c(C#N)c(-c2ccncc2)c1C | inconclusive: 126 µM [inhibitor, single point] | 
CCOc1ccc(NC(=O)c2cc3ccccc3cc2O)cc1 | inconclusive: 44.7 µM [inhibitor, partial curve, poor fit] | 
Cc1cccc(OCC(=O)N2CCN(c3nnc(-c4ccccc4)c4ccccc34)CC2)c1 | inconclusive: 100 µM [inhibitor, partial curve, poor fit] | 
COC(=O)c1ccc(COc2ccccc2C#N)cc1 |  | inconclusive: -35.8% [inhibitor]
